Measured values published in the supplement of paper PMC10849652.
This is one part of the list.

The chains behind the UniProt entries cited, without tags or fusion partners. Where a name states a change or a piece, a line headed by the entry shows the natural chain unless it says otherwise.
UniProt Q5NDL2: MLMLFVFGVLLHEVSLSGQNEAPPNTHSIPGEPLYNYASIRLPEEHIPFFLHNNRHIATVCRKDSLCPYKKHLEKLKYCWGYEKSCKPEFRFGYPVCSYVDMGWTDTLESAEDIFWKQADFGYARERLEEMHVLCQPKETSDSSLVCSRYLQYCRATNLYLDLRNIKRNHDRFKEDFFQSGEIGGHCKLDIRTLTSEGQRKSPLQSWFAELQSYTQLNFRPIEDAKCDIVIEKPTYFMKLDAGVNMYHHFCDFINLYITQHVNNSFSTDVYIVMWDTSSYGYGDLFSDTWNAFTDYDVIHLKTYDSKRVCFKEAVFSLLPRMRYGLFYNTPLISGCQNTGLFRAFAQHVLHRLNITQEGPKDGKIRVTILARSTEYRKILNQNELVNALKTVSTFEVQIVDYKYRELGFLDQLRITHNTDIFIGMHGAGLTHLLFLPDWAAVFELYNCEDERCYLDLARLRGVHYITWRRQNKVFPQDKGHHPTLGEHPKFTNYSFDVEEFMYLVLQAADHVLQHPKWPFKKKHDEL
UniProt Q0PNE2: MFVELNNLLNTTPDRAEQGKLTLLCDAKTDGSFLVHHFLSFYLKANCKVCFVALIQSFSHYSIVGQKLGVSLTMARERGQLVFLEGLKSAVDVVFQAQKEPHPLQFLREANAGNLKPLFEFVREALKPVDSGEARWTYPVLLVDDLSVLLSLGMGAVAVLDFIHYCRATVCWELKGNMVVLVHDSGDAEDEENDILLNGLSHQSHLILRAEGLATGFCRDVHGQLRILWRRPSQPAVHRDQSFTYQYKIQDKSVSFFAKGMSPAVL
UniProt P84090, whole entry, looked up: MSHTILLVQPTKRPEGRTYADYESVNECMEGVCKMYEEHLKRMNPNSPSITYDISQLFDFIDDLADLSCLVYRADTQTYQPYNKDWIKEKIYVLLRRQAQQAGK
UniProt Q8IZ81: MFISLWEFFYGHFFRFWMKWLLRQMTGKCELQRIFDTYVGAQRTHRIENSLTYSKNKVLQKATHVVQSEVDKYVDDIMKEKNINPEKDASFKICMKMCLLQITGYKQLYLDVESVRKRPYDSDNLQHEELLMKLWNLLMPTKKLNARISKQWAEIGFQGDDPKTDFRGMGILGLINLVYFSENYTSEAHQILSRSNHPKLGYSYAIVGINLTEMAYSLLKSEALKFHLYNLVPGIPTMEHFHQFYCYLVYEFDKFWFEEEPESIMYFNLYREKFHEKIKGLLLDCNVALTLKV
UniProt Q15369, whole entry, looked up: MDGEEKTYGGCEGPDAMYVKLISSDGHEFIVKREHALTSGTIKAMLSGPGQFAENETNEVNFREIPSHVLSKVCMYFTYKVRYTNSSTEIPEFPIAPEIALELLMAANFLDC
UniProt O14638, whole entry, looked up: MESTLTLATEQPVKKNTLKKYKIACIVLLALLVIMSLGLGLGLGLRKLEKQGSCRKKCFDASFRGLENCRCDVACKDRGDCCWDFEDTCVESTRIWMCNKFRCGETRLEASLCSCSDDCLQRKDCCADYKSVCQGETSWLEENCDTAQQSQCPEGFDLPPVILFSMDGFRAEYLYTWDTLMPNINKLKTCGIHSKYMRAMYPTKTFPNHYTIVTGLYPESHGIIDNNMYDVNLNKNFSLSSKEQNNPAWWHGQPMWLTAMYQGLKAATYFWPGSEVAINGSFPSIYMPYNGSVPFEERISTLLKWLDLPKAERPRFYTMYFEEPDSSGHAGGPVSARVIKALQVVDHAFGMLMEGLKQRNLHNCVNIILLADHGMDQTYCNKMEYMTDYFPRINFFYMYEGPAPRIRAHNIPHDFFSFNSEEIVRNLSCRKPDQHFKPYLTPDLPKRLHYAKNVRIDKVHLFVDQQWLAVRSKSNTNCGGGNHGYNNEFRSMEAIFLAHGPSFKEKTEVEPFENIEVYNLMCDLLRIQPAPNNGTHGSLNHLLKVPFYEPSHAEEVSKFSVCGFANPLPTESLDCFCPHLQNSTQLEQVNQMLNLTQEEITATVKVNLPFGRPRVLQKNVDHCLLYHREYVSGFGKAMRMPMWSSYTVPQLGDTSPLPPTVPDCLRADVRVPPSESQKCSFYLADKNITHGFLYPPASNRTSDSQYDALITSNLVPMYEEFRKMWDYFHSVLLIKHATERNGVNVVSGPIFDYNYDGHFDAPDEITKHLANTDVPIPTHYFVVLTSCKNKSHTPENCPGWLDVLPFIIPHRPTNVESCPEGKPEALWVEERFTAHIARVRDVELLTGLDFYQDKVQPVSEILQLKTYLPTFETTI
UniProt Q96RQ1: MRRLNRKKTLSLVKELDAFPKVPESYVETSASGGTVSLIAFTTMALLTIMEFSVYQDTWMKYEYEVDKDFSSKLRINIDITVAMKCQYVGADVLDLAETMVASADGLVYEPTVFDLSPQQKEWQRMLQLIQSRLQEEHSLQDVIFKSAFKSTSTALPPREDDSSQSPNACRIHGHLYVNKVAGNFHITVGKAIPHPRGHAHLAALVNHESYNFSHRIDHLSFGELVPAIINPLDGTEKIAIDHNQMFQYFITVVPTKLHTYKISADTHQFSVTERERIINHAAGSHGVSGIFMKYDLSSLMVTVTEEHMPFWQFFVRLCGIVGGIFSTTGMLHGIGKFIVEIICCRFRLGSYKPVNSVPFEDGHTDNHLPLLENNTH
UniProt O15371, whole entry, looked up: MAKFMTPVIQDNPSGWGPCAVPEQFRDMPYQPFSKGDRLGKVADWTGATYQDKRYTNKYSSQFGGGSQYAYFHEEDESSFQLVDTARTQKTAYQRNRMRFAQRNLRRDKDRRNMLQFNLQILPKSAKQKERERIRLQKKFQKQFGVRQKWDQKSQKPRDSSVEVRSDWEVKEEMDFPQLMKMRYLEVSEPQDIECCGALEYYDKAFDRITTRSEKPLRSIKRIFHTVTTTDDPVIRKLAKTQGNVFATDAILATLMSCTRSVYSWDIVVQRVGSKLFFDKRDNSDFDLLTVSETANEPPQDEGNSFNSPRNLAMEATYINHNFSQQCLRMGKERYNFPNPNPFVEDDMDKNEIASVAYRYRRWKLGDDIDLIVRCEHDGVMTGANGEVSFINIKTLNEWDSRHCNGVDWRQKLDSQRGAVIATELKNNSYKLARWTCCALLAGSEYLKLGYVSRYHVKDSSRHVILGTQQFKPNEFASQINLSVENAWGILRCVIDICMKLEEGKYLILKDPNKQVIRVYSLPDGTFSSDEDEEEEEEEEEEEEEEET
UniProt O75821, whole entry, looked up: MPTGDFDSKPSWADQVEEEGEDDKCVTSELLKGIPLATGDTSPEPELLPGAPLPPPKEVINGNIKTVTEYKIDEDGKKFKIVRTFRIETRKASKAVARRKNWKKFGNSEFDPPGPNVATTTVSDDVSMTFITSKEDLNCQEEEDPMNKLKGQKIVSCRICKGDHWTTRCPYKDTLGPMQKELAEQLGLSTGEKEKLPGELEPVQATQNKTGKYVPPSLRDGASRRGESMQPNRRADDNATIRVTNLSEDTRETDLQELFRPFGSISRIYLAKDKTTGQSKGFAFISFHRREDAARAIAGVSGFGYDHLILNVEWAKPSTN
UniProt O43414: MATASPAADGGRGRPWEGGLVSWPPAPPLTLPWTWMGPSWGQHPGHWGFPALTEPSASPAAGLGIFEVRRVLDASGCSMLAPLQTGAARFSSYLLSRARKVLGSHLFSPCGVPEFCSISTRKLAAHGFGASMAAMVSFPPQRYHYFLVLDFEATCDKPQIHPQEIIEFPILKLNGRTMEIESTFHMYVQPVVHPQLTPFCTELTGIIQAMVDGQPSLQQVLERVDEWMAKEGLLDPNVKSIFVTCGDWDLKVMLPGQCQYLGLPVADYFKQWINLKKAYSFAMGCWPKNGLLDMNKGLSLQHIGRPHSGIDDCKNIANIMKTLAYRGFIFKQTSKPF
UniProt P54760: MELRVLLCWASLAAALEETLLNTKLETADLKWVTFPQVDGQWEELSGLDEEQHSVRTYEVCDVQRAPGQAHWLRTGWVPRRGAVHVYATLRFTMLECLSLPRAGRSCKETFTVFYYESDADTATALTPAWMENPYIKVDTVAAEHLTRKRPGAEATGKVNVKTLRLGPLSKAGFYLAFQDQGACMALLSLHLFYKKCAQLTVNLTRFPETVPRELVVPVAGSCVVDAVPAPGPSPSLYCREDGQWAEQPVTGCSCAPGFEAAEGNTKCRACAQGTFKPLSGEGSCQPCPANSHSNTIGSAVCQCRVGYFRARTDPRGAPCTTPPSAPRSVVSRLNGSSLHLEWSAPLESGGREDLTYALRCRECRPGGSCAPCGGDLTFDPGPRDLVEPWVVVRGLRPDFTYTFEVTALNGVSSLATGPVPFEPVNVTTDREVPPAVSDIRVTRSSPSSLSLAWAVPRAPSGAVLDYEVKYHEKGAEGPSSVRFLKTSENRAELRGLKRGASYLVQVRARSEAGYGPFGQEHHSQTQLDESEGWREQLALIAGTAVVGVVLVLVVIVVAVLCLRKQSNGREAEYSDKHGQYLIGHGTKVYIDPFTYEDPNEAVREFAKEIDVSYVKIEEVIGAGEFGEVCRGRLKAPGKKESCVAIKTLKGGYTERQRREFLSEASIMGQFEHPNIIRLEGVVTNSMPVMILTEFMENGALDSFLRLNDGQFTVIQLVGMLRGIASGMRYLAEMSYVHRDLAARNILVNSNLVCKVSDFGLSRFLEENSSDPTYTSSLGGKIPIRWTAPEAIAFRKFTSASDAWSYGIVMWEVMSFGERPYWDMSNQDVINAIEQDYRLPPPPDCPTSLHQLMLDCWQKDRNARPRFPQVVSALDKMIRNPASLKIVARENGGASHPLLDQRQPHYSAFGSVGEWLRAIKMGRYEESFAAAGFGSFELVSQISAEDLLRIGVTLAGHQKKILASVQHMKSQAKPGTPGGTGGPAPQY

Experiments:
Assay in all cases: log2 fold change, soluble protein after heating vs DMSO (PISA); higher = thermal stabilisation; K562 lysate, 10 uM; active = over 0.2 and 3.5 SD of the protein, either way, in both replicates (recomputed)
[1] = compound: CN1CC[C@H](c2c(O)cc(O)c3c(=O)cc(-c4ccccc4Cl)oc23)[C@H](O)C1 [alvocidib]
Outline: (§1)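 Following dounce homogenisation of K562 pellets in PBS pH 7.4 with 1 mM MgCl2, crude extract at 1 mg/mL protein was incubated for 30 min with 10 μM compound. Aliquots were then heated for 3 min over 48°C-58°C and pooled, NP-40 was added to 0.5% at 4°C, and soluble protein was recovered as the supernatant at 21,000xg for 90 min. Channel-sum-equalised TMTpro 16plex LC-MS/MS quantified this protein. Each value, from duplicates, is a log-two fold change in thermal stability relative to solvent controls.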

[2] = compound: CN1CCc2c(c3ccccc3n2Cc2ccc(C(=O)NO)cc2)C1 [Tubastatin A]
Outline: as §1

[3] = compound: CNC(=O)C1=CC=CC=C1NC2=NC(=NC=C2Cl)NC3=C(C=C(C=C3)N4CCOCC4)OC
Outline: as §1

[4] = compound: CNC(=O)c1ccc(Nc2ncc(C(F)(F)F)c(NCc3nccnc3N(C)S(C)(=O)=O)n2)cc1 [defactinib]
Outline: as §1

[5] = compound: CNc1nc(-c2ccc3c(N)n[nH]c3c2)cc(N2C[C@@H](C(=O)NC3CCCCC3)CC[C@H]2C)n1
Outline: as §1

[6] = compound: COC(=O)N[C@@H](C)CNc1nccc(-c2cn(C(C)C)nc2-c2cc(Cl)cc(NS(C)(=O)=O)c2F)n1 [encorafenib]
Outline: as §1

[7] = compound: COC(=O)[C@H](CCSC)NC(=O)C1=C(C=C(C=C1)NC[C@H](CS)N)C2=CC=CC=C2
Outline: as §1

[8] = compound: COc1cc(Nc2ncc3c(n2)-c2ccc(Cl)cc2C(c2c(F)cccc2OC)=NC3)ccc1C(=O)O [alisertib]
Outline: as §1

[9] = compound: COc1cc2nc(-c3cc(F)ccc3O)nc(N[C@@H]3CNC[C@H]3C(C)(C)O)c2cc1OC
Outline: as §1

[10] = compound: COc1cc2ncnc(Nc3ccc(F)c(Cl)c3)c2cc1OCCCN1CCOCC1 [gefitinib]
Outline: as §1

[11] = compound: CS(=O)(=O)CCNCc1ccc(-c2ccc3ncnc(Nc4ccc(OCc5cccc(F)c5)c(Cl)c4)c3c2)o1 [lapatinib]
Outline: as §1

[12] = compound: CS(=O)(=O)N1CCN(Cc2cc3nc(-c4cccc5[nH]ncc45)nc(N4CCOCC4)c3s2)CC1 [pictilisib]
Outline: as §1

[13] = compound: C[C@@H](Oc1cc(-c2cnn(C3CCNCC3)c2)cnc1N)c1c(Cl)ccc(F)c1Cl [crizotinib]
Outline: as §1

[14] = compound: C[C@H](C1=CC=C(C=C1)C(=O)NC2=C3C=CNC3=NC=C2)N
Outline: as §1

[15] = compound: C[C@H](Nc1ncnc2nc[nH]c12)c1cc2cccc(Cl)c2c(=O)n1-c1ccccc1 [duvelisib]
Outline: as §1

[16] = compound: Cc1cc(Nc2cc(CN3CCOCC3)c3nc(C)c(Cc4ccc(Cl)cc4F)n3n2)n[nH]1 [gandotinib]
Outline: as §1

[17] = compound: Cc1cc(Nc2cc(N3CCN(C)CC3)nc(Sc3ccc(NC(=O)C4CC4)cc3)n2)n[nH]1 [tozasertib]
Outline: as §1

[18] = compound: Cc1ccc(-n2nc(C(C)(C)C)cc2NC(=O)Nc2ccc(OCCN3CCOCC3)c3ccccc23)cc1 [doramapimod]
Outline: as §1

[19] = compound: Cc1ccc(NC(=O)c2ccc(CN3CC[C@H](N(C)C)C3)c(C(F)(F)F)c2)cc1Nc1nccc(-c2cncnc2)n1 [bafetinib]
Outline: as §1

[20] = compound: Cc1cccc(CC(=O)N2CCc3c2ccc(-c2cn(C)c4ncnc(N)c24)c3F)n1
Outline: as §1

Measured: log2 fold change

EOGT (UniProt Q5NDL2)
inactive: [1] 0.006 | [2] 0.114 | [3] 0.016 | [4] -0.002 | [5] 0.076 | [6] -0.023 | [7] 0.009 | [8] -0.097 | [9] 0.03 | [10] 0 | [11] 0.014 | [12] -0.011 | [13] 0.007 | [14] -0.007 | [15] -0.009 | [16] -0.006 | [17] 0.006 | [18] 0.034 | [19] -0.069 | [20] 0.014

ELP6 (UniProt Q0PNE2)
inactive: [1] -0.073 | [2] 0.014 | [3] 0.034 | [4] 0.038 | [5] 0.067 | [6] 0.005 | [7] -0.113 | [8] 0.023 | [9] -0.013 | [10] -0.029 | [11] 0.011 | [12] -0.022 | [13] -0.026 | [14] -0.159 | [15] 0.021 | [16] 0.075 | [17] -0.015 | [18] 0.026 | [19] -0.065 | [20] 0.02

ERH (UniProt P84090)
inactive: [1] 0.001 | [2] 0.028 | [3] -0.001 | [4] -0.042 | [5] 0.023 | [6] -0.021 | [7] -0.056 | [8] 0.082 | [9] -0.043 | [10] -0.085 | [11] 0.027 | [12] -0.04 | [13] 0.056 | [14] -0.003 | [15] 0.01 | [16] 0.019 | [17] 0.037 | [18] -0.049 | [19] 0.033 | [20] -0.037

ELMOD2 (UniProt Q8IZ81)
inactive: [1] 0.044 | [2] -0.022 | [3] -0.012 | [4] 0.039 | [5] -0.052 | [6] 0 | [7] -0.042 | [8] -0.047 | [9] 0.035 | [10] 0.014 | [11] -0.01 | [12] -0.029 | [13] 0.011 | [14] 0.068 | [15] 0.001 | [16] -0.05 | [17] 0.029 | [18] 0.001 | [19] -0.002 | [20] -0.022

ELOC (UniProt Q15369)
inactive: [1] 0.095 | [2] -0.015 | [3] 0.034 | [4] 0.043 | [5] 0.051 | [6] -0.019 | [7] 0.007 | [8] 0.023 | [9] -0.046 | [10] -0.083 | [11] 0.008 | [12] -0.026 | [13] 0.011 | [14] 0.017 | [15] -0.049 | [16] -0.017 | [17] -0.041 | [18] -0.018 | [19] -0.046 | [20] -0.041

ENPP3 (UniProt O14638)
inactive: [1] 0.009 | [2] 0.016 | [3] -0.006 | [4] 0.029 | [5] 0.001 | [6] -0.001 | [7] -0.036 | [8] -0.004 | [9] 0.01 | [10] -0.037 | [11] -0.015 | [12] -0.029 | [13] -0.005 | [14] -0.018 | [15] 0.007 | [16] 0.027 | [17] -0.053 | [18] -0.08 | [19] -0.005 | [20] 0.024

ERGIC2 (UniProt Q96RQ1)
inactive: [1] 0.033 | [2] 0.015 | [3] -0.028 | [4] 0.057 | [5] 0.095 | [6] 0.057 | [7] -0.117 | [8] -0.032 | [9] -0.111 | [10] -0.009 | [11] -0.05 | [12] -0.031 | [13] -0.015 | [14] 0.074 | [15] -0.038 | [16] -0.132 | [17] 0.028 | [18] 0.018 | [19] -0.078 | [20] 0.012

EIF3D (UniProt O15371)
inactive: [1] 0.021 | [2] -0.073 | [3] 0.073 | [4] -0.011 | [5] 0.019 | [6] 0.012 | [7] 0.206 | [8] 0.015 | [9] 0.004 | [10] 0.005 | [11] -0.011 | [12] 0.018 | [13] -0.046 | [14] -0.042 | [15] 0.002 | [16] -0.024 | [17] 0.02 | [18] 0.034 | [19] -0.053 | [20] 0.065

EIF3G (UniProt O75821)
inactive: [1] 0.003 | [2] 0.023 | [3] -0.008 | [4] 0.009 | [5] 0.011 | [6] -0.013 | [7] -0.01 | [8] 0.008 | [9] -0.002 | [10] -0.024 | [11] -0.015 | [12] 0.019 | [13] 0.005 | [14] -0.021 | [15] 0.019 | [16] 0.009 | [17] 0.01 | [18] -0.019 | [19] 0.006 | [20] -0.004

ERI3 (UniProt O43414)
inactive: [1] 0.023 | [2] 0 | [3] 0.026 | [4] 0 | [5] -0.018 | [6] -0.013 | [7] 0.034 | [8] 0.014 | [9] 0.012 | [10] 0.045 | [11] 0.014 | [12] -0.023 | [13] -0.049 | [14] -0.065 | [15] 0.012 | [16] 0.027 | [17] 0.012 | [18] 0.024 | [19] 0 | [20] 0.057

EPHB4 (UniProt P54760)
inactive: [1] -0.004 | [2] -0.012 | [3] 0.003 | [4] 0.047 | [5] -0.036 | [6] -0.043 | [7] -0.18 | [8] 0.012 | [9] 0.058 | [11] 0.023 | [12] -0.106 | [13] 0.076 | [14] -0.007 | [15] 0.01 | [16] 0.058 | [17] 0 | [18] 0.247 | [19] 0.071 | [20] 0.007
